This is an account of results in PMC6926483.

Chains of the proteins cited; added tags and fusions are not shown.
UniProt Q812A2: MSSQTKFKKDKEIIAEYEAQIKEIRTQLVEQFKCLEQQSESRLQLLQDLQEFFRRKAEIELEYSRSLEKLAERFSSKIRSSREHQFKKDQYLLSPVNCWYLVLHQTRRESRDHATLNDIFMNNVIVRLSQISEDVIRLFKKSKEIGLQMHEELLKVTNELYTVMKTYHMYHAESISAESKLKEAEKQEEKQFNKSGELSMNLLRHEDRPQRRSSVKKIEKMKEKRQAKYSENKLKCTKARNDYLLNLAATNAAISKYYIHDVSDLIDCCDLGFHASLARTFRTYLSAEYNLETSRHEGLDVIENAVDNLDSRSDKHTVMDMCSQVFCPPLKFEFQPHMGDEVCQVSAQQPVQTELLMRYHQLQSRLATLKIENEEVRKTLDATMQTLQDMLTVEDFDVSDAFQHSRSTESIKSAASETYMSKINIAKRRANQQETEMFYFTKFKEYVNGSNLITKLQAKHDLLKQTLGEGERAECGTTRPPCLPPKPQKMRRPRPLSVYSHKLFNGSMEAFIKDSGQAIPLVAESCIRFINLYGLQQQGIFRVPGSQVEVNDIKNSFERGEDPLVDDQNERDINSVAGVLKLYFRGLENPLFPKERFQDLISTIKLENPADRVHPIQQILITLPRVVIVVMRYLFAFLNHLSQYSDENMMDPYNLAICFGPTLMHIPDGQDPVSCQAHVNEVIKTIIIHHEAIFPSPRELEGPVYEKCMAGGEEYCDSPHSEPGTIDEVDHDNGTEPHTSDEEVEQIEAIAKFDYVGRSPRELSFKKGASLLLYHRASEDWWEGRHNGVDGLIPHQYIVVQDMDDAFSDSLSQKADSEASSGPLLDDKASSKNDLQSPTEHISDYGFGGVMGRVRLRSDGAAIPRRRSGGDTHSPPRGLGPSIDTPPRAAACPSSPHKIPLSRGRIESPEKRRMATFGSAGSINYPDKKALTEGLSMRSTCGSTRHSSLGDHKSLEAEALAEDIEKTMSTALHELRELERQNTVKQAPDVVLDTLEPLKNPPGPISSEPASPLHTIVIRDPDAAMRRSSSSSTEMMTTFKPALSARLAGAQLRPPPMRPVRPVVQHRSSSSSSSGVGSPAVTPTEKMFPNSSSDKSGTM
UniProt Q8R4H2: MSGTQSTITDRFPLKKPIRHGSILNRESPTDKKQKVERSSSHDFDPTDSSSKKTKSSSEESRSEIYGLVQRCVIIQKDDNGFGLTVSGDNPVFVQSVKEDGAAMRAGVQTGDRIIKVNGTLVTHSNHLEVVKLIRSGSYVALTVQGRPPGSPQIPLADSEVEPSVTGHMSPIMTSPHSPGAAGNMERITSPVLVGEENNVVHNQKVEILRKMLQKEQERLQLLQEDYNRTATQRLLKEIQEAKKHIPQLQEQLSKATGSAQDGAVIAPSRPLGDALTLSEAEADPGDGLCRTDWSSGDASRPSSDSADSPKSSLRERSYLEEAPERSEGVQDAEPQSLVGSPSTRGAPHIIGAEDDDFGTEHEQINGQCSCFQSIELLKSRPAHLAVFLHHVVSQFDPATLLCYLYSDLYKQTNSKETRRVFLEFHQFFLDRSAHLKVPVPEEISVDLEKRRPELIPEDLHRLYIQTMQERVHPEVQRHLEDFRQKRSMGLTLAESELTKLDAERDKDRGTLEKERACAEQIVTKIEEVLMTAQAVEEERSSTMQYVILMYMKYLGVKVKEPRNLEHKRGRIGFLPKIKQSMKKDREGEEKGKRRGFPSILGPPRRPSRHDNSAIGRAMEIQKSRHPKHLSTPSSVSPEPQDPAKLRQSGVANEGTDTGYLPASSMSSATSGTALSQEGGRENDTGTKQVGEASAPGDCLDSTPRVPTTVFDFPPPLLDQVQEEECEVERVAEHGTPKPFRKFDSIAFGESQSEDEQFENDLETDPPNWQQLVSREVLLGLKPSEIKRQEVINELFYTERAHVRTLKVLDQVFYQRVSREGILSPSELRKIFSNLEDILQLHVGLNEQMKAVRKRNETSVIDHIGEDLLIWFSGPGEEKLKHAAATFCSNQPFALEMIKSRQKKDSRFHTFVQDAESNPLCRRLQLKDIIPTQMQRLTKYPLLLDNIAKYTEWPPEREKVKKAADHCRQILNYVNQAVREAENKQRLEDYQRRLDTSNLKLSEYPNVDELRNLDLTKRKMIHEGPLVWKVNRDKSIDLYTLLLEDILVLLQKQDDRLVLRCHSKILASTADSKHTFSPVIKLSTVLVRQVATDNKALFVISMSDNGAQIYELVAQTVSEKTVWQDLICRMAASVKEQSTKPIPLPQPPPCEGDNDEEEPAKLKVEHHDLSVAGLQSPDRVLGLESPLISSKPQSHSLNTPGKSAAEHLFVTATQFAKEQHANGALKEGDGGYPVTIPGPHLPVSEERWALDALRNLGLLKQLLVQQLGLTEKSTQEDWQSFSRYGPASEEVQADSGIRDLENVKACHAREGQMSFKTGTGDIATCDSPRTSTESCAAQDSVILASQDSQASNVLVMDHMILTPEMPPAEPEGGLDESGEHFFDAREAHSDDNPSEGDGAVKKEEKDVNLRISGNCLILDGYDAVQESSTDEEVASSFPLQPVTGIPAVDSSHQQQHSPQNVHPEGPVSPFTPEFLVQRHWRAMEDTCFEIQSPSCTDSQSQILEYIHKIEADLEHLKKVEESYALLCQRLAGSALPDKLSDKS
UniProt Q3UU96: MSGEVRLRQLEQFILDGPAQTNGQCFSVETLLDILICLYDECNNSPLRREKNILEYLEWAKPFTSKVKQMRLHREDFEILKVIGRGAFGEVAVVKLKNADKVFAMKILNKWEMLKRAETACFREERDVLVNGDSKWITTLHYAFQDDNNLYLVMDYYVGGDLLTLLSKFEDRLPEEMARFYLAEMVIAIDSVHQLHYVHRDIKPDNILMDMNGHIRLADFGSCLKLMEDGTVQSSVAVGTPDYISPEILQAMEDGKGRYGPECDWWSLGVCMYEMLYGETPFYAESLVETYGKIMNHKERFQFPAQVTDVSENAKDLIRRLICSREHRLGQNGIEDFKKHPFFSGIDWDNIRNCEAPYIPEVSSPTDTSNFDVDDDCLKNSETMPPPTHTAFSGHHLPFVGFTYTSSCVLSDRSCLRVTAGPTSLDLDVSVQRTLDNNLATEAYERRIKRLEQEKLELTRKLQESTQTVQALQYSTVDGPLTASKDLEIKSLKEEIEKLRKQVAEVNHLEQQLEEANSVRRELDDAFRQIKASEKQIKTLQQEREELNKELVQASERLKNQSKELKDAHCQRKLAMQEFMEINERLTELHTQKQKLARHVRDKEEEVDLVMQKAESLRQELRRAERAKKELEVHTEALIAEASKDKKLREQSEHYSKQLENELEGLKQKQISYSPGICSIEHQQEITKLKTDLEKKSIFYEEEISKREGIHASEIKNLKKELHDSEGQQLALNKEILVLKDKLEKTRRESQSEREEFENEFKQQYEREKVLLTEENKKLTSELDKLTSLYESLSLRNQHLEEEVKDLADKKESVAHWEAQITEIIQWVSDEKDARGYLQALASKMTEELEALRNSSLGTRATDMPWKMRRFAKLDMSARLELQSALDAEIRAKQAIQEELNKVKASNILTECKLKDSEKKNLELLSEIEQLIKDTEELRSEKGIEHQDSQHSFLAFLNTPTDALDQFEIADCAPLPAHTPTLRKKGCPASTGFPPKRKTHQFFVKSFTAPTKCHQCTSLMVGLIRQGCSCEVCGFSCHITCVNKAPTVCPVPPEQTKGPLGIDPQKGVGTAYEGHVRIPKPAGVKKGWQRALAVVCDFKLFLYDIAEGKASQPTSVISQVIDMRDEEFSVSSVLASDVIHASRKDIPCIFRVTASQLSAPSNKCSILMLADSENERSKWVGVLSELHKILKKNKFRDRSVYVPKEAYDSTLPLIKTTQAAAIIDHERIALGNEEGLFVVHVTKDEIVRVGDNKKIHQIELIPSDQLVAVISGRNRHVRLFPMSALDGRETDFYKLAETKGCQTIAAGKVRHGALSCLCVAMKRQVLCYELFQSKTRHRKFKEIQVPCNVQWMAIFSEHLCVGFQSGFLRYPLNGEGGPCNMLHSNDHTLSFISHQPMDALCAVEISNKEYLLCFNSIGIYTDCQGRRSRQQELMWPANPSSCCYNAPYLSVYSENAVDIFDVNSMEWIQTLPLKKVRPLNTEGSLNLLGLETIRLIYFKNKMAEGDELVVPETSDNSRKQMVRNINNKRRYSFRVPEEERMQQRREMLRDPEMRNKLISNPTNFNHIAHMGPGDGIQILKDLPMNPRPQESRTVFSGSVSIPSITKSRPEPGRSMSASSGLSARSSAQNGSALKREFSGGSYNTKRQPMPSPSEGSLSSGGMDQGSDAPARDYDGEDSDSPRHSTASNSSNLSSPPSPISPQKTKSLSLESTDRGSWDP

No constants are given. Whether binding was seen depends on the method and setting. Binding seen in cells or lysates may run through a third protein. Here binding means that the protein was enriched with, or labelled near, the bait; the list need not be complete.

T1: glutamate receptor delta-1 (GluD1), endogenous (mouse (endogenous in P15 mouse brain)) (UniProt Q61627)
T1 sequence: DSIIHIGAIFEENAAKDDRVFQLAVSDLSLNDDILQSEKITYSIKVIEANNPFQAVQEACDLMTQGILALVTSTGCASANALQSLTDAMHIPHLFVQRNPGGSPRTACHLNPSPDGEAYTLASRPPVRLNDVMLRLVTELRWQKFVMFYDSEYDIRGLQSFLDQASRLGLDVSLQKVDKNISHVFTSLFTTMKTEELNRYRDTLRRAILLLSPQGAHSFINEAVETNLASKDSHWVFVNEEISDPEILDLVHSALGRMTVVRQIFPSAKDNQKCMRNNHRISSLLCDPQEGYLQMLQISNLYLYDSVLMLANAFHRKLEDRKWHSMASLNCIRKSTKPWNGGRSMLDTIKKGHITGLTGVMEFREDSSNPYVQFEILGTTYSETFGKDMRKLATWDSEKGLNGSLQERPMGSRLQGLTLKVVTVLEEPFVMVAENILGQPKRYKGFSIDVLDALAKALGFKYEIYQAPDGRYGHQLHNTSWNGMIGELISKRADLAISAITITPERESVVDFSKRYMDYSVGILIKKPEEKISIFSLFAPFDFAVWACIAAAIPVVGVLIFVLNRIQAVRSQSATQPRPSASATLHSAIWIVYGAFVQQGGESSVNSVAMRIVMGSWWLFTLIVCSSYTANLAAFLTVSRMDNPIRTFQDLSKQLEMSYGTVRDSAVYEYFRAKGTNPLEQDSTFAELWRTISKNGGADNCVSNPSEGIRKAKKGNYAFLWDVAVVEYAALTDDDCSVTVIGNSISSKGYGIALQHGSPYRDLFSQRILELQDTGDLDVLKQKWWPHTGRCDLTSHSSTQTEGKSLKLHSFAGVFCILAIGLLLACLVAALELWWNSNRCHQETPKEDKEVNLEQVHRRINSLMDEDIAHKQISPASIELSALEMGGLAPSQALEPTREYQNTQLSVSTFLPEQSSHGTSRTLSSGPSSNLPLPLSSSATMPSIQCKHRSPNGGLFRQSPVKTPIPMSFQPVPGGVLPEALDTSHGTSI

B1: protein phosphatase 1 regulatory subunit 12A (PPP1R12A) (protein, UniProt Q9DBR7 1-1029)
chain: MKMADAKQKRNEQLKRWIGSETDLEPPVVKRQKTKVKFDDGAVFLAACSSGDTDEVLKLLHRGADINYANVDGLTALHQACIDDNVDMVKFLVENGANINQPDNEGWIPLHAAASCGYLDIAEFLIGQGAHVGAVNSEGDTPLDIAEEEAMEELLQNEVNRQGVDIEAARKEEERVMLRDARQWLNSGHISDVRHAKSGGTALHVAAAKGYTEVLKLLIQAGYDVNIKDYDGWTPLHAAAHWGKEEACRILVDNLCDMETVNKVGQTAFDVADEDILGYLEELQKKQTLLHSEKRDKKSPLIESTANMENNQPQKAFKNKETLIIEPEKNASRIESLEHEKADEEEEGKKDESSCSSEEDEEDDSESEAETDKTKPMASVSNAHTSSTQAAPAAVTAPTLSSNQGTPTSPVKKFPISTTKISPKEEERKDESPASWRLGLRKTGSYGALAEISASKEAQKEKDTAGVMRSASSPRLSSSLDNKEKEKDNKGTRLAYVTPTIPRRLASTSDIEEKENRESSSLRTSSSYTRRKWEDDLKKNSSINEGSTYHRSCSFGRRQDDLISCSVPSTTSTPTVTSAAGLQRSLPSSTSTAAKTPPGSSSAGTQSSTSNRLWAEDSTEKEKDSAPTAVTIPVAPTVVNAAAPSTTTLTTTTAGTVSEVRERRRSYLTPVRDEESESQRKARSRQARQSRRSTQGVTLTDLQEAEKTIGRSRSTRTREQENEEKEKEEKEKQDKEKQEEKKESEASREDEYKQKYSRTYDETYTRYRPVSTSSSSAPSSSSLSTLGSTLYASSQLNRPNSLVGITSAYSRGLAKENEREGEKKEEEKEGEDKSQPKSIRERRRPREKRRSTGVSFWTQDSDENEQERQSDTEDGSSKRETQTDSVSRYDSSSTSSSDRYDSLLGRSASYSYLEDRKPYSSRLEKDDSTDFKKLYEQILAENEKLKAQLHDTNMELTDLKLQLEKATQRQERFADRSQLEMEKRERRALERRISEMEEELKMLPDLKADNQRLKDENGALIRVISKLSK
B2: SRCIN1 (p140cap) (protein, UniProt Q9QWI6 1-1250)
chain: MQPWQCLRRFALAWWERTAEGRARSPREEVGPRDPGGRGEPDPERSSPPMLSADDAEYPREYRTLGGGGGGGSGGRRFSNVGLVHTSERRHTVIAAQSLEALSGLQKADADRKRDAFMDHLKSKYPQHALALRGQQDRMREQVGGWTVDPVCLLSSLCSHLHGDSTPSGAGQPAQQPNYWSFKTRSSRHTQGAQPGLADQAAKLSYASAESLETMSEAELPLGFSRMNRFRQSLPLSRSASQTKLRSPGVLFLQFGEETRRVHITHEVSSLDTLHALIAHMFPQKLTMGMLKSPNTAILIKDEARNVFYELEDVRDIQDRSIIKIYRKEPLYAAFPGSHLTNGDLRREMVYASRESSPTRRLNNLSPASHLASSSPPPGLPSGLPSGLPSGSPSRSRLSYAGGRPPSYAGSPVHHAAERLGGAPTGQGVSPSPSAILERRDVKPDEDLAGKAGGMVLVKGEGLYADPYGLLHEGRLSLAAAAETHSHTRARAACTSGVPCALSAPTPLPRCSPTWRTRCTRRALAALYGDGYGFRLPPSSPQKLADVSAPSGGPPPPHSPYSGPPSRGSPVRQSFRKDSGSSSVFAESPGGKARSTGSASTAGAPPSELFPGPGERSLVGFGPPVPAKDTETRERMEAMEKQIASLTGLVQSALLRGSEPETPSEKVEGSNGAATPSAPVCGSGSKSSGATPVSGPPPPSASSTPAGQPTAVSRLQMQLHLRGLQNSASDLRGQLQQLRNVQLQNQESVRALLKPTEADVSMRVSEAARRQEDPLQRQRTLVEEERLRYLNDEELITQQLNDLEKSVEKIQRDVAHNHRLMPGPELEEKALVLKQLGETLTELKAHFPGLQSKMRVVLRVEVEAVKFLKEEPQRLDGLLKRCRGVTDTLAQIRRQVDEGMWPPPNNLLNQSPKKVAAETDFSKGLDFEIPPPSPPLNLHELSGPAEGTPLTPKSTNPTKCLDASSKRNTDKAVSVEAAERDWEEKRAALTQYSAKDINRLLEETQAELLKAIPDLDCASKTHPGPAPTPDHKPPKAPHGQKAAPRTEPSGRRGSDELTVPRYRTEKPSKSPPPPPPRRSFPSSHGLTTTRTGEVVVTSKKDSVFIKKAESEELEVQKPQVKLRRAVSEVVRPASTPPIMASAIKDEDDEERIIAELESGGSSVPPMKVVTPGASRLKAAQGPAGSPDKGKHGKQRTEYMRIQAQQQATKPSKEVSGPNETSSPGSEKPSGSRTSIPVLTSFGARNSSISF

The first assay concerns the target T1, glutamate receptor delta-1 (GluD1), endogenous (mouse (endogenous in P15 mouse brain)). Briefly: affinity purification with mass spectrometry; synaptic membranes from P15 mouse brain (1% CHAPS, 20 mM HEPES pH 7.4, 150 mM NaCl, 5 mM EDTA, 5 mM EGTA); overnight at 4°C with rabbit anti-GluD1 cross-linked to protein G magnetic beads, total rabbit IgG as control; on-bead digestion, LC-MS/MS; three replicates.
Take “Rho GTPase-activating protein 32 (ARHGAP32/PX-RICS) (from UniProt Q811P8-1 1-2089)”: the binding entry is reported as “binds”.

Turning to “Slit-Robo Rho GTPase-activating protein 2 (SRGAP2) (from UniProt Q91Z67 1-1071)”, the binding result is “binds”.

For “Slit-Robo Rho GTPase-activating protein 3 (SRGAP3) (from UniProt Q812A2 1-1099)”, the binding result is recorded as “binds”.

Regarding “rho guanine nucleotide exchange factor 12 (ARHGEF12) (from UniProt Q8R4H2 1-1543)”, the binding entry was “binds”.

Consider “serine/threonine protein kinase MRCKα (from UniProt Q3UU96 1-1719) (enzyme)”, for which the binding entry was “binds”.

For another assay the target is unchanged. The description is as above. The source holds these as a separate data set.
As to B1, the binding entry was “binds”.

For B2, the binding result was “binds”.
